Results on two molecules are retold here after publication PMC4290084, “Multiplex Imaging and Cellular Target Identification of Kinase Inhibitors via an Affinity-Based Proteome Profiling Approach” (Scientific Reports, 2015).

Sequences of proteins named here, by UniProt entry; tags and fusion partners are left off. Residues count along the entry.
UniProt P06493: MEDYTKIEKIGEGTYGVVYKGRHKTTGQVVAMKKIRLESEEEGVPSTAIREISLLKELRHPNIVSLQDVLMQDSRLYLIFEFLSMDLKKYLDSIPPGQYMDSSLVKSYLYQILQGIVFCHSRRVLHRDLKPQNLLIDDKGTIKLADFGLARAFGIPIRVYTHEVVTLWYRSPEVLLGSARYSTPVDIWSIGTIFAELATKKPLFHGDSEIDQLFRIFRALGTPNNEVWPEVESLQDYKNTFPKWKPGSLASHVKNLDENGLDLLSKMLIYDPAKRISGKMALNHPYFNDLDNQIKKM
UniProt P30101, residues 25-505: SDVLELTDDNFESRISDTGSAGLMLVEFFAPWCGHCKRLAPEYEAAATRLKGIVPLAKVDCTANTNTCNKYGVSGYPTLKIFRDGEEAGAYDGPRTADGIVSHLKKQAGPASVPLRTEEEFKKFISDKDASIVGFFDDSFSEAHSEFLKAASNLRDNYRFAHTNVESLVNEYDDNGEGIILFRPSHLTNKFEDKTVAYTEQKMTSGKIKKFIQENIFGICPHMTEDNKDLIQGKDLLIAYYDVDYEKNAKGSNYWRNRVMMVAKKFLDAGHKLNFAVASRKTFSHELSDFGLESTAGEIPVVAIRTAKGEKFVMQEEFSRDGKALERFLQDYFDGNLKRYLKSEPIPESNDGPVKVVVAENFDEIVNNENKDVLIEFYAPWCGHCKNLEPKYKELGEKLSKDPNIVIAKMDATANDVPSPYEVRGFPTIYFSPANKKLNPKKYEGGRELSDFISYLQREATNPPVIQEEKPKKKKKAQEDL
UniProt Q9Y266: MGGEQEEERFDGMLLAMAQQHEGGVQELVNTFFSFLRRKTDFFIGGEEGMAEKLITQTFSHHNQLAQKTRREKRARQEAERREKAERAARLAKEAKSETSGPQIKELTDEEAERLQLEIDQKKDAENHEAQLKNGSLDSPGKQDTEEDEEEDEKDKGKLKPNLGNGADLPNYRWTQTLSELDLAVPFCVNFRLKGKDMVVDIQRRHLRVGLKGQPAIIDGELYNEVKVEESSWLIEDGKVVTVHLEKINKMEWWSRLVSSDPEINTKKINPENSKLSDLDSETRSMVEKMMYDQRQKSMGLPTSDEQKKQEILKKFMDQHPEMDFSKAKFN

No constants are given. Whether binding was seen depends on the method and setting. Binding seen in cells or lysates may run through a third protein. Some results given as binding are weak or reduced against the parent protein; the word gives no strength.

What all share (experiment): co-IP; synchronized HeLa cells lysed in RIPA buffer (50 mM Tris pH 8, 150 mM NaCl, 1% NP-40, 0.5% deoxycholate, 0.1% SDS), lysate adjusted with PBS to 5 mg/mL; antibody (anti-AKA, anti-CDK1 or anti-ERP57) cross-linked to beads (Pierce Co-Immunoprecipitation Kit), 12 h at 4°C; detected by WB with anti-AKA, anti-CDK1 and anti-NUDC
The target of assay [1] is T1, Aurora kinase A (human (endogenous in HeLa)) (UniProt O14965).
T1 sequence: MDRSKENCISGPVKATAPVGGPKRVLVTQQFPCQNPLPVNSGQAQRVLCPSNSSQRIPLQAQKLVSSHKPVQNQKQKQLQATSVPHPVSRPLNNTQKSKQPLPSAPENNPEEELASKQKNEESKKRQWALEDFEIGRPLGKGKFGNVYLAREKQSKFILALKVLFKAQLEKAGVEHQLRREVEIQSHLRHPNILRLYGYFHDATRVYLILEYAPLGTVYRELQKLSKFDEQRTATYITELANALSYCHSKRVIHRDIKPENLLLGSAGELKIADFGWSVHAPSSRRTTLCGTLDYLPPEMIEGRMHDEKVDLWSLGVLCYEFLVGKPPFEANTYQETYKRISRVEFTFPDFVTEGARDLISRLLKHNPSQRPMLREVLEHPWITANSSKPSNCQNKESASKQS

The target of assay [2] is CDK1 (human (endogenous in HeLa)) (UniProt P06493).
The target in assay [3] is ERP57 (human (endogenous in HeLa)) (UniProt P30101).

On to NUDC (from UniProt Q9Y266 1-331), for which the binding result in assay [1] is reported as “binds”; in assay [2], “no binding”; in assay [3], “no binding”.

B1: Aurora kinase A (enzyme, UniProt O14965 1-403)
chain: MDRSKENCISGPVKATAPVGGPKRVLVTQQFPCQNPLPVNSGQAQRVLCPSNSSQRIPLQAQKLVSSHKPVQNQKQKQLQATSVPHPVSRPLNNTQKSKQPLPSAPENNPEEELASKQKNEESKKRQWALEDFEIGRPLGKGKFGNVYLAREKQSKFILALKVLFKAQLEKAGVEHQLRREVEIQSHLRHPNILRLYGYFHDATRVYLILEYAPLGTVYRELQKLSKFDEQRTATYITELANALSYCHSKRVIHRDIKPENLLLGSAGELKIADFGWSVHAPSSRRTTLCGTLDYLPPEMIEGRMHDEKVDLWSLGVLCYEFLVGKPPFEANTYQETYKRISRVEFTFPDFVTEGARDLISRLLKHNPSQRPMLREVLEHPWITANSSKPSNCQNKESASKQS
As to B1, the binding entry in assay [2] is “binds”; in assay [3] it was “no binding”.
